Results are given in words; binding and its absence hold for the method and conditions named. Binding seen in cells or lysates may run through a third protein. Here binding means that the protein was enriched with, or labelled near, the bait; the list need not be complete.

Chains of the proteins cited; added tags and fusions are not shown.
UniProt Q8IZT6: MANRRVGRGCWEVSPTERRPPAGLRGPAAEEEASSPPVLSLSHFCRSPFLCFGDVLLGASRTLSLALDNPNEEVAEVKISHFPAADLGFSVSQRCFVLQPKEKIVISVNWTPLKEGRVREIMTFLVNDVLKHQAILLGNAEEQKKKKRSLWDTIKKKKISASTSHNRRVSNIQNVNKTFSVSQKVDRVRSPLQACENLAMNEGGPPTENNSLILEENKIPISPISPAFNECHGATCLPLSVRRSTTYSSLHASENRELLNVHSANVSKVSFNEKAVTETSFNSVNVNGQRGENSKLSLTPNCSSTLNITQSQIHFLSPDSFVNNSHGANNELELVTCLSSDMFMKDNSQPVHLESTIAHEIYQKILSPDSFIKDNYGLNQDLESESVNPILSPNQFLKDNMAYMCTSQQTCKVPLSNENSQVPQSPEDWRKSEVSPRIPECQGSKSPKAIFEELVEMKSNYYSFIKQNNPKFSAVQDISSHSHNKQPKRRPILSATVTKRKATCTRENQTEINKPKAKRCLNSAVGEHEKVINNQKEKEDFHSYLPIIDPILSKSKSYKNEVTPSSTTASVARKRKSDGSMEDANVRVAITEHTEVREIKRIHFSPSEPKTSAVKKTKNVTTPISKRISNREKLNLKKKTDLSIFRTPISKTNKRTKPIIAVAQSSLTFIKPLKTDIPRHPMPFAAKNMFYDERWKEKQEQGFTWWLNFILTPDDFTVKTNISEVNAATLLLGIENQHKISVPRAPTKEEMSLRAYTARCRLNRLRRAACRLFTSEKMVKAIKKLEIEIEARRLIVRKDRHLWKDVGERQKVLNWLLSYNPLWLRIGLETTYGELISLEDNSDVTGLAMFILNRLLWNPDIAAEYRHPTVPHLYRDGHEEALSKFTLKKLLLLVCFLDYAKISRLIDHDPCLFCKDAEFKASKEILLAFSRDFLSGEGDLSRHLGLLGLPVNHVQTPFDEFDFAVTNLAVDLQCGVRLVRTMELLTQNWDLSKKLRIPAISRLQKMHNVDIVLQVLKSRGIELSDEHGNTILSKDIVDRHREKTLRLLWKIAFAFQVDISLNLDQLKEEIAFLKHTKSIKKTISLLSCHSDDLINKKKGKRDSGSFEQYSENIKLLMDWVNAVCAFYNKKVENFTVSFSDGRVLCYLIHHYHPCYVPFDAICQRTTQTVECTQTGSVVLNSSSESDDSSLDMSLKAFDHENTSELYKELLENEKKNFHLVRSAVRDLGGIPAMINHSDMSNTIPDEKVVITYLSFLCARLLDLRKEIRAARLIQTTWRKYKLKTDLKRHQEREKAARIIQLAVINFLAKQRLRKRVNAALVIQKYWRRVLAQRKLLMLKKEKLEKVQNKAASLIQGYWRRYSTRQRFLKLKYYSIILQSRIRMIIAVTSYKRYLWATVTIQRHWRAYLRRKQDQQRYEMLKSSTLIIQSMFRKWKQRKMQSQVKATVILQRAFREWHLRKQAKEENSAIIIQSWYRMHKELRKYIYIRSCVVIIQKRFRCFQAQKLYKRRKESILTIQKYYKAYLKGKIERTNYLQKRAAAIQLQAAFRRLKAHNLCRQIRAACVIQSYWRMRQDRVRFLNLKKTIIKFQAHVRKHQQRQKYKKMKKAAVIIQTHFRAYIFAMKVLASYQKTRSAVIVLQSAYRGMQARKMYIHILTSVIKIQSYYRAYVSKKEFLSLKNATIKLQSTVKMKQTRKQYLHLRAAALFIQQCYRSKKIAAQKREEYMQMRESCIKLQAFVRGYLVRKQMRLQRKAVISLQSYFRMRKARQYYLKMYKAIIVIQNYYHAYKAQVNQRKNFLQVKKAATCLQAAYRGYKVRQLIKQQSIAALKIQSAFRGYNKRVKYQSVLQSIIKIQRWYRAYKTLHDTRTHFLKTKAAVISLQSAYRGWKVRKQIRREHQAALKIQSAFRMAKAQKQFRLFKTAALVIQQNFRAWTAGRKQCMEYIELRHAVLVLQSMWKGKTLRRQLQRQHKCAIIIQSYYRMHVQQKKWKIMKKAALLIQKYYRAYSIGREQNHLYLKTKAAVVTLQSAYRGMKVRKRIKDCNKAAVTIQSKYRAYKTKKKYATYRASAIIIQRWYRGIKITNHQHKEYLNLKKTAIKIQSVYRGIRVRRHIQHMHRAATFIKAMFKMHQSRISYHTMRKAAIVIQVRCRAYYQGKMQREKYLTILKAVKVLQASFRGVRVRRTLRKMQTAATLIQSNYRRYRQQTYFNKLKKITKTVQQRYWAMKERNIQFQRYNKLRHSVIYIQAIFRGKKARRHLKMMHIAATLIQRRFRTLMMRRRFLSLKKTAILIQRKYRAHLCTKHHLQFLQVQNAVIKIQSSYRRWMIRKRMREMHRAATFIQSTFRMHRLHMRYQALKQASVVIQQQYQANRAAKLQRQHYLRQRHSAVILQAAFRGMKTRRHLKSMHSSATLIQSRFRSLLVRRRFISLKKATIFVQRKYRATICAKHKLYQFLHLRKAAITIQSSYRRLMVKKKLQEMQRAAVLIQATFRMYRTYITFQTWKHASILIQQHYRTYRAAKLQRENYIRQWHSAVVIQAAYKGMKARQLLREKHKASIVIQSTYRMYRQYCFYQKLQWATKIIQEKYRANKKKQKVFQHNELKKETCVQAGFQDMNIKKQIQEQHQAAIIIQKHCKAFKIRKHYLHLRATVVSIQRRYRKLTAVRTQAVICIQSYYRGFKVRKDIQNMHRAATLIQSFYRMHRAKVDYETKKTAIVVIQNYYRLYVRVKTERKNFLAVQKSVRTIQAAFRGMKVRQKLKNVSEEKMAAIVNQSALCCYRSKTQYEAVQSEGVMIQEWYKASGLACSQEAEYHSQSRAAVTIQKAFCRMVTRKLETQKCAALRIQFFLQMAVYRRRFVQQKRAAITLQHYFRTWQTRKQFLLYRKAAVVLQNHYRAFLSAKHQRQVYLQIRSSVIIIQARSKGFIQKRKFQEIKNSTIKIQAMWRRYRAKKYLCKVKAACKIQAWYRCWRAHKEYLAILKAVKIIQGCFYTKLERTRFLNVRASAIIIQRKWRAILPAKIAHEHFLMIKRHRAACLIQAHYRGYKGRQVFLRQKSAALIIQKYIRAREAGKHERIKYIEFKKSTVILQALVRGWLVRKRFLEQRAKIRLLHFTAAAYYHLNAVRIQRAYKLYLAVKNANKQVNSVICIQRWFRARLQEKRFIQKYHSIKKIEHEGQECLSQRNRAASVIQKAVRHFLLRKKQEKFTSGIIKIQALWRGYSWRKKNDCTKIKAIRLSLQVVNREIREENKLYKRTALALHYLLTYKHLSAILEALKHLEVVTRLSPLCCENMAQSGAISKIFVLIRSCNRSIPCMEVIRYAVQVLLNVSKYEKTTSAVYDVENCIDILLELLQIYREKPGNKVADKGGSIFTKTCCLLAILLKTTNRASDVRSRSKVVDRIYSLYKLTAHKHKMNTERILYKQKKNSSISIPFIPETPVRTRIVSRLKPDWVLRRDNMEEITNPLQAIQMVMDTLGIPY
UniProt Q96KR1: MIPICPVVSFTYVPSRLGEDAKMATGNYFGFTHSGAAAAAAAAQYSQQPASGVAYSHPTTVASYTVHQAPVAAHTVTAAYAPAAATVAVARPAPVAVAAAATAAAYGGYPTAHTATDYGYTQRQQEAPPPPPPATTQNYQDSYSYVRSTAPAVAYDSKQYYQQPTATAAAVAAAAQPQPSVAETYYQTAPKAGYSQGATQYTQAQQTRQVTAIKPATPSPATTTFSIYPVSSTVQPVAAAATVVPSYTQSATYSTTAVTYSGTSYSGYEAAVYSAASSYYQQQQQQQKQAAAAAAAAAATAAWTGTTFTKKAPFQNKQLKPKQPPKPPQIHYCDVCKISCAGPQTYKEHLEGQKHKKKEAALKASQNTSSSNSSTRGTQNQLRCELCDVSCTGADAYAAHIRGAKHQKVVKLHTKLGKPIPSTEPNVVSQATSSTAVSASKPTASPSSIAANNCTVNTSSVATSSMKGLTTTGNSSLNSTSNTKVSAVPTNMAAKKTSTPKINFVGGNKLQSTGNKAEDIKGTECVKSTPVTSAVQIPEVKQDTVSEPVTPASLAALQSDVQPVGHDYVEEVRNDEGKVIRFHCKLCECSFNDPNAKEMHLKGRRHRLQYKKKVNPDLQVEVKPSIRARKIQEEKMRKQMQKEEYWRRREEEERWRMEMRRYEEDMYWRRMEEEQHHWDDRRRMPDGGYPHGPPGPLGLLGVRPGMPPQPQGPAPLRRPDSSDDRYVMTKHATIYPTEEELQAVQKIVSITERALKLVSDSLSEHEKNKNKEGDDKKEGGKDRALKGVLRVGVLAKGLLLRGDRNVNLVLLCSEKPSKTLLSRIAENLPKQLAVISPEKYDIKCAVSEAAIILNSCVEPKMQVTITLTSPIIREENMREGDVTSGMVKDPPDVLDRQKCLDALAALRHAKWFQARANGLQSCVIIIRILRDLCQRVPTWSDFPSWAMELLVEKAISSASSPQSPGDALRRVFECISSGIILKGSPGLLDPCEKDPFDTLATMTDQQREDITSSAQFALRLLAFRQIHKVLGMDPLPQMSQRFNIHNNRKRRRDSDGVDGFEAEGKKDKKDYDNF
UniProt P61604: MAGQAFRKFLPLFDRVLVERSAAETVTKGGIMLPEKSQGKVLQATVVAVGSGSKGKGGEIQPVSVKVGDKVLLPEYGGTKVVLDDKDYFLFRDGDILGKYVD

B1: NF-kappa-B-repressing factor (protein, UniProt O15226 1-690)
chain: MEKILQMAEGIDIGEMPSYDLVLSKPSKGQKRHLSTCDGQNPPKKQAGSKFHARPRFEPVHFVASSSKDERQEDPYGPQTKEVNEQTHFASMPRDIYQDYTQDSFSIQDGNSQYCDSSGFILTKDQPVTANMYFDSGNPAPSTTSQQANSQSTPEPSPSQTFPESVVAEKQYFIEKLTATIWKNLSNPEMTSGSDKINYTYMLTRCIQACKTNPEYIYAPLKEIPPADIPKNKKLLTDGYACEVRCQNIYLTTGYAGSKNGSRDRATELAVKLLQKRIEVRVVRRKFKHTFGEDLVVCQIGMSSYEFPPALKPPEDLVVLGKDASGQPIFNASAKHWTNFVITENANDAIGILNNSASFNKMSIEYKYEMMPNRTWRCRVFLQDHCLAEGYGTKKTSKHAAADEALKILQKTQPTYPSVKSSQCHTGSSPRGSGKKKDIKDLVVYENSSNPVCTLNDTAQFNRMTVEYVYERMTGLRWKCKVILESEVIAEAVGVKKTVKYEAAGEAVKTLKKTQPTVINNLKKGAVEDVISRNEIQGRSAEEAYKQQIKEDNIGNQLLRKMGWTGGGLGKSGEGIREPISVKEQHKREGLGLDVERVNKIAKRDIEQIIRNYARSESHTDLTFSRELTNDERKQIHQIAQKYGLKSKSHGVGHDRYLVVGRKRRKEDLLDQLKQEGQVGHYELVMPQAN

The test has as its target Ku70 ∆vWA-BioID2-HA (human) (UniProt P12956). Nature of the test: proximity labelling; BioID2 in stable HEK293 lines, 50 μM biotin for 24 h, RIPA lysis, streptavidin Dynabeads, on-bead digestion, LC-ESI-MS/MS; three biological replicates; filtered against HEK293 and NLS-BioID2 controls.
“Abnormal spindle-like microcephaly associated protein (from UniProt Q8IZT6 1-3477)”: the binding result is given as “binds”.
The value for “Zinc finger RNA-binding protein (from UniProt Q96KR1 1-1074)” was “binds”; that for “10 kDa heat shock protein (from UniProt P61604 1-102)” was “binds”.
The entry for B1 is “binds”.

The record behind these values is article PMC8001828.
